Measurements reported in PubChem BioAssay AID1224830 (NIAID, 2016)
Shown is one part, drawn at random, of about 18,000 reagents. About 2,900 of all reagents (16%) count as active. 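Calls are made per well; low scores hint the gene aids the LPS response, high scores that it dampens it.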 Repeated entries: four replicate wells of each siRNA pool. Reagent sequences are not shown.

Test: 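Regulators of TLR4 signalling towards TNF-alpha in macrophage-like cells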 (primary screen)
System: human THP-1 monocytic leukaemia cells, TNF dual-luciferase reporter clone, PMA-differentiated to macrophage-like cells
Reagents: siRNA pool against human genes, 50 nM
Time to read-out: LPS for 4 h, given about 3 days after siRNA transfection
Challenge: bacterial LPS (TLR4 ligand), 10 ng/ml
Detection: 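Ratio of firefly to renilla light, scaled to the plate median and expressed as a robust z-score per replicate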
Direction: TNF reporter robust z-score: higher = stronger TNF reporter response to LPS
Rule for the call: 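Each well counts as active if its z-score is over 2.8 or under -1.5; controls are left without a call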

no.	Target gene	TNF reporter robust z-score	call
1	RMI1	-0.48	inactive
2	RMI1	-0.13	inactive
3	RMI1	-1.11	inactive
4	RMI1	0.83	inactive
5	RESF1	0.08	inactive
6	RESF1	0.88	inactive
7	RESF1	0.57	inactive
8	RESF1	0.75	inactive
9	FOXK1	3.56	active
10	FOXK1	2.69	inactive
11	FOXK1	3.27	active
12	FOXK1	2.21	inactive
13	MAP4K1	-1.24	inactive
14	MAP4K1	-0.34	inactive
15	MAP4K1	-2.01	active
16	MAP4K1	0.18	inactive
17	ATP5PB	-0.56	inactive
18	ATP5PB	1.45	inactive
19	ATP5PB	-0.64	inactive
20	ATP5PB	-0.05	inactive
21	TTC3	1.97	inactive
22	TTC3	0.46	inactive
23	TTC3	0.61	inactive
24	TTC3	1.56	inactive
25	DOK2	0.55	inactive
26	DOK2	0.62	inactive
27	DOK2	0.43	inactive
28	DOK2	0.72	inactive
29	TAC3	-1.13	inactive
30	TAC3	-0.99	inactive
31	TAC3	1.32	inactive
32	TAC3	-1.09	inactive
33	PRDM7	0.88	inactive
34	PRDM7	1.97	inactive
35	PRDM7	0.2	inactive
36	TOMM22	1.47	inactive
37	TOMM22	-0.18	inactive
38	TOMM22	2.11	inactive
39	TOMM22	0.9	inactive
40	HOXD1	0.73	inactive
41	HOXD1	0.72	inactive
42	HOXD1	0.35	inactive
43	HOXD1	0.71	inactive
44	MOB1B	-1.08	inactive
45	MOB1B	-0.35	inactive
46	MOB1B	-0.78	inactive
47	MOB1B	-0.27	inactive
48	HSD17B14	2.63	inactive
49	HSD17B14	2.06	inactive
50	HSD17B14	1.59	inactive
51	HSD17B14	0.83	inactive
52	TTC39C	0.7	inactive
53	TTC39C	1.28	inactive
54	TTC39C	0.36	inactive
55	TTC39C	-0.34	inactive
56	TAX1BP3	1.25	inactive
57	TAX1BP3	1.03	inactive
58	TAX1BP3	0.19	inactive
59	TAX1BP3	1.43	inactive
60	TRIM8	-0.37	inactive
61	TRIM8	-0.15	inactive
62	TRIM8	0.44	inactive
63	TRIM8	-0.55	inactive
64	ABCB7	0.28	inactive
65	ABCB7	1.08	inactive
66	ABCB7	0.9	inactive
67	ABCB7	2.5	inactive
68	ANTXR2	-0.45	inactive
69	ANTXR2	-1	inactive
70	ANTXR2	-1.24	inactive
71	ANTXR2	0.38	inactive
72	FAS	0.65	inactive
73	FAS	1.17	inactive
74	FAS	-0.59	inactive
75	FAS	0.24	inactive
